Drawing on patent publication US20160017348A1, this text covers binding for 1 molecule.

These are yes or no findings as the source states them, for the method shown. In cells and extracts the contact can be indirect. Here binding means that the protein was enriched with, or labelled near, the bait; the list need not be complete. Where a sequence is shown, tags or fusion partners need not be part of it.

In the assay the target is T1, SUVH2 (Arabidopsis thaliana) (UniProt O22781).
T1 sequence: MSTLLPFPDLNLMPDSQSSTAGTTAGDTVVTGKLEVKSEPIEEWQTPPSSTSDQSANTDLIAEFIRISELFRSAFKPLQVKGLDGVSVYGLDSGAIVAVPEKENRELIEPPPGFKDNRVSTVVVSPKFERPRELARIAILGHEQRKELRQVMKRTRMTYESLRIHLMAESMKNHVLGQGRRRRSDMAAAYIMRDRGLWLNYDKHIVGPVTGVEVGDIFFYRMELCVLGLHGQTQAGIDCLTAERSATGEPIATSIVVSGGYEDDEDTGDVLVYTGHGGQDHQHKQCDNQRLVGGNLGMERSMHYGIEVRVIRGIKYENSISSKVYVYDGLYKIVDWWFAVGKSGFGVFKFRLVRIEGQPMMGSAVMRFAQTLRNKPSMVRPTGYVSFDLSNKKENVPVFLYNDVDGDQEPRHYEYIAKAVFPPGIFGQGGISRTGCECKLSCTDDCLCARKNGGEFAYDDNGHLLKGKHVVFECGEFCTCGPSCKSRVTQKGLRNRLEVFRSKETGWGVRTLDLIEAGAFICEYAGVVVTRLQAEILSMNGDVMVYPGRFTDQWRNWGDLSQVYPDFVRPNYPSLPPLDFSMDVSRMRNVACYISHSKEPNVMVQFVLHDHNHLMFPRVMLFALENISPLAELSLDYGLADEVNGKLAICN
The experiment in a line: immunoprecipitation of epitope-tagged DRD1 and mass spectrometry.

B1: DRD1-Flag (protein, not shown: small tags and cut ends)
chain: MGFVYIVMTGYYKNVHKRKQNQVDDGPEAKRVKSSAKVIDYSNPFAVSNMLEALDSGKFGSVSKELEEIADMRMDLVKRSIWLYPSLAYTVFEAEKTMDNQQVVEGVINLDDDDDDDTDVEKKALCVVPSSSEIVLLDSDDEDNERQRPMYQFQSTLVQHQKNQGDVTPLIPQCSFEEVDLGRGKEMPSAIKAIVEGQTSRGKVLPIENGVVNEKGVYVGVEEDDSDNESEAADEDLGNIWNEMALSIECSKDVARETSHKEKADVVEDCEHSFILKDDMGYVCRVCGVIEKSILEIIDVQFTKAKRNTRTYASETRTKRFGESDNELKFSEEGLMIGGLAAHPTHAAEMKPHQIEGFQFLCSNLVADDPGGCIMAHAPGSGKTFMIISFMQSFLAKYPQAKPLVVLPKGILPTWKKEFVRWQVEDIPLLDFYSAKAENRAQQLSILKQWMEKKSILFLGYQQFSTIVCDDTTDSLSCQEILLKVPSILILDEGHTPRNEDTNLLQSLAQVQTPRKVVLSGTLYQNHVKEVFNILNLVRPKFLKLDTSKSAVKRILAYTPCDVRGRLTGSNSDMASMFNETVEHTLQKSEDFTVKIKVIQDLREMTKKVLHYYKGDFLDELPGLADFTVVLNLSPKQLNEVKKLRREKRKFKVSAVGSAIYLHPKLKVFSDKSDDVSDTTMDEMVEKLDLNEGVKAKFFLNLINLCDSAGEKLLVFSQYLIPLKFLERLAALAKGWKLGKEVFVLTGNTSSEQREWSMETFNSSPDAKIFFGSIKACGEGISLVGASRILILDVPLNPSVTRQAIGRAFRPGQKKMVHAYRLIAGSSPEEEDHNTCFKKEVISKMWFEWNEYCGYQNFEVETIDVDEAGDTFLESPALREDIRVLYKR
Turning to B1, the binding result is on record as “binds”.
